The results in this text go back to paper PMC5381226.

The chains behind the UniProt entries cited, without tags or fusion partners. Residues count along the entry.
UniProt Q80V62: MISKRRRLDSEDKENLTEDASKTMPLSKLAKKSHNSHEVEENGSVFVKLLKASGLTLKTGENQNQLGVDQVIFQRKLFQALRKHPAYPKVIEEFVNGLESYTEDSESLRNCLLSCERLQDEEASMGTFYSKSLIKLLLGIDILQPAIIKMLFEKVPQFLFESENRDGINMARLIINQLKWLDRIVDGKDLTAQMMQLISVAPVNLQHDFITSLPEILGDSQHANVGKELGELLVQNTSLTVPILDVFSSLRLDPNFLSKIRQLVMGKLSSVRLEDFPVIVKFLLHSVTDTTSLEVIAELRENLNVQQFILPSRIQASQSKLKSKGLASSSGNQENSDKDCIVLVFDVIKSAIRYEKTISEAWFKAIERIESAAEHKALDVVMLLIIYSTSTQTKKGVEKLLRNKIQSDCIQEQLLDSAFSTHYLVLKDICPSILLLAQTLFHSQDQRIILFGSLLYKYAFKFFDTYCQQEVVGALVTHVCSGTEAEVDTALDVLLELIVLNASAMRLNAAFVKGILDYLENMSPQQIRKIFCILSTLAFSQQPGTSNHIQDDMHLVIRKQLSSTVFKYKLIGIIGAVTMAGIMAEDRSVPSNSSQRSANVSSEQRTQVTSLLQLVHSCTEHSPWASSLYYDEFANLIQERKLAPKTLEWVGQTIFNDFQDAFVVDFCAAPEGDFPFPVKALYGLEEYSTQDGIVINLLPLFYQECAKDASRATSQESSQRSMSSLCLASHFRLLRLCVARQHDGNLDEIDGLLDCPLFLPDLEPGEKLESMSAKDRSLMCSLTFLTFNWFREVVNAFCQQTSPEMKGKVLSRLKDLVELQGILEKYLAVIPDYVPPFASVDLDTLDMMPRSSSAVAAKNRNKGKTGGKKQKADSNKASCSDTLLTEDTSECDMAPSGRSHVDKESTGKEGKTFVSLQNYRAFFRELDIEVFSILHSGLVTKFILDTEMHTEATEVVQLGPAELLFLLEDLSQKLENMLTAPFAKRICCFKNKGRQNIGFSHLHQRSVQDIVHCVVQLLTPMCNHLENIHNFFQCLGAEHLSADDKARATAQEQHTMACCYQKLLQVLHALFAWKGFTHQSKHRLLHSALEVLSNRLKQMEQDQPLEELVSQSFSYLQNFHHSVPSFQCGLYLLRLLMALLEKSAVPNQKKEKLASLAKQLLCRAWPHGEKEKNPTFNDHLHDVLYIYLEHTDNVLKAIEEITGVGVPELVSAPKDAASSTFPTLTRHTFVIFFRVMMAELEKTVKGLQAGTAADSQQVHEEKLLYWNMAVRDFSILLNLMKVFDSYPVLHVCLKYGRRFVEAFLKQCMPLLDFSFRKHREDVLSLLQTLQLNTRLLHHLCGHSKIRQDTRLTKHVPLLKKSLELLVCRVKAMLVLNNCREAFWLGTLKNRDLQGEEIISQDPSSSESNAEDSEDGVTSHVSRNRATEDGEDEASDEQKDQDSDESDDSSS
UniProt Q9Z0X1, residues 102-612: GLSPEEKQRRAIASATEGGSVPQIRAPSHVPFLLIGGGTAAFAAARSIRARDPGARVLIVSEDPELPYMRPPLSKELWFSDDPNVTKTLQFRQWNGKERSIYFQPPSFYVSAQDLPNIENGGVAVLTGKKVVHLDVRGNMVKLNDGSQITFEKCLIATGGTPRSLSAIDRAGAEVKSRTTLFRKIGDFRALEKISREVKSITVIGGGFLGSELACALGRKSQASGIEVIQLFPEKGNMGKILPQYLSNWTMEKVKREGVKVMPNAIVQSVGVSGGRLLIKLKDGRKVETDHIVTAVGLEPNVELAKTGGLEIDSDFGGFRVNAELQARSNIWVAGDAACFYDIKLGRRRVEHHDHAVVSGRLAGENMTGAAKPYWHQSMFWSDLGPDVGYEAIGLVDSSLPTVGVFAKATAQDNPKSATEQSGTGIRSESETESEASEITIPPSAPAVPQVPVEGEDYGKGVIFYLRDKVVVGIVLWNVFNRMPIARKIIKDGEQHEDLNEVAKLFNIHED

No constants are given. Whether binding was seen depends on the method and setting. In cells and extracts the contact can be indirect. A yes stands for co-enrichment or nearness to the bait. Other partners may have been found.

In the assay the target is 3XFLAG/HA-tagged Fancd2 (mouse) (UniProt Q80V62). Description: affinity purification with mass spectrometry; two-step purification of tagged Fancd2 (anti-FLAG M2 agarose, FLAG peptide elution, then anti-HA beads, 4 °C) from lysates of ES cells, E11.5 embryos, testes and spleens of Fancd2 knock-in mice; mock purification from wild-type; LC-MS/MS.

“Aifm (Apoptosis-Inducing Factor, Mitochondrion-Associated) (from UniProt Q9Z0X1 102-612)”: the binding entry is listed as “binds”.
